Experimental findings from the supplement of paper PMC10735217 are described below.

The subject of this assay is HEK293A TEAD-LUC reporter. The assay can be described thus: TEAD-luciferase reporter activity (YAP activation), robust Z score vs plate; higher = stronger YAP/TEAD activation. Particulars: 24 h.

Structures can show the parent of a compound that is named as a salt. This is one part of the list. Repeats in this data set agree poorly, so a single value says little.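 Human kidney-derived cells stably carry a construct in which eight TEAD-binding elements drive luciferase, measured by luminescence in a drug-repurposing library screen. A hit is any compound whose signal exceeds the plate mean by more than five robust Z scores.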

With `Cc1c(O)ccc2c1OCC(c1ccc(O)cc1)C2c1ccc(O)cc1` (configuration not stated), the TEAD-luciferase reporter activity runs as follows: (compound concentration: 200 nM) inactive: 0.647; (compound concentration: 2 uM) inactive: 2.07; (compound concentration: 10 uM) inactive: 0.734.

Consider `CCC[C@]1(CC(=O)OCC)OCCc2c1[nH]c1c(C)ccc(C#N)c21`, for which the TEAD-luciferase reporter activity by setting is: (compound concentration: 200 nM) inactive: 1.69; (compound concentration: 2 uM) inactive: -0.176; (compound concentration: 10 uM) inactive: 2.58.

As for `CN1C[C@H]2C[C@@H]1CN2c1cc2c(cc1F)c(=O)c(C(=O)O)cn2C1CC1` [Danofloxacin mesylate], the TEAD-luciferase reporter activity (compound concentration: 200 nM) was inactive: -1.56, the TEAD-luciferase reporter activity (compound concentration: 2 uM) was inactive: 1.9 and the TEAD-luciferase reporter activity (compound concentration: 10 uM) is inactive: -0.533.

Take `CC1=C(/C=C/C(C)=C/C=C/C(C)=C/C=C/C=C(C)/C=C/C=C(C)/C=C/C2=C(C)C[C@@H](O)CC2(C)C)C(C)(C)C[C@H](O)C1`: the TEAD-luciferase reporter activity (compound concentration: 200 nM) was inactive: -0.705, the TEAD-luciferase reporter activity (compound concentration: 2 uM) was inactive: -1.28 and the TEAD-luciferase reporter activity (compound concentration: 10 uM) was inactive: 0.411.

In the case of `Fc1ccc(-c2ccc(CN3CCN(c4cccc5ccoc45)CC3)[nH]2)cc1`, the TEAD-luciferase reporter activity runs as follows: (compound concentration: 200 nM) inactive: 2.39; (compound concentration: 2 uM) inactive: 0.358; (compound concentration: 10 uM) inactive: 3.3.

Turning to `O=C(O)CNC(=O)CNC(=O)CS`, the TEAD-luciferase reporter activity (compound concentration: 200 nM) is inactive: -1.16, the TEAD-luciferase reporter activity (compound concentration: 2 uM) was inactive: -0.957 and the TEAD-luciferase reporter activity (compound concentration: 10 uM) is inactive: 0.0359.

For `O=c1[nH]c2ccccc2c2cc(CO)nn12` [pirquinozol], the TEAD-luciferase reporter activity (compound concentration: 200 nM) was inactive: -0.447, the TEAD-luciferase reporter activity (compound concentration: 2 uM) is inactive: -1.18 and the TEAD-luciferase reporter activity (compound concentration: 10 uM) was inactive: -0.233.

Consider `COc1cc(-n2cnc3cc(-c4ccc(Cl)cc4)sc3c2=O)ccc1OCCN1CCCC1`, for which the TEAD-luciferase reporter activity (compound concentration: 200 nM) was inactive: -0.666, the TEAD-luciferase reporter activity (compound concentration: 2 uM) was inactive: -0.991 and the TEAD-luciferase reporter activity (compound concentration: 10 uM) was inactive: 0.873.

With `O=P(O)(O)[C@@H](CCCc1cccc(Oc2ccccc2)c1)S(=O)(=O)O`, the TEAD-luciferase reporter activity was inactive: 0.338 (compound concentration: 200 nM), inactive: -1.57 (compound concentration: 2 uM) and inactive: -2.31 (compound concentration: 10 uM).

Turning to `O=C(O)C1Cc2cc3c(-c4ccccc4F)noc3c(Cl)c2O1` (configuration not stated), the TEAD-luciferase reporter activity by setting is: (compound concentration: 200 nM) inactive: -1.25; (compound concentration: 2 uM) inactive: 1.36; (compound concentration: 10 uM) inactive: -1.13.

Turning to `CCN1C(=S)N(c2ccc(N3CCN(c4ccc(O)cc4)CC3)cc2)C(=O)C1(C)C`, the TEAD-luciferase reporter activity was inactive: -2.08 (compound concentration: 200 nM), inactive: -0.783 (compound concentration: 2 uM) and inactive: -0.744 (compound concentration: 10 uM).

`CCCCN(CCCC)C(=O)OCC[N+](C)(C)CC`: the TEAD-luciferase reporter activity runs as follows: (compound concentration: 200 nM) inactive: -1.36; (compound concentration: 2 uM) inactive: -0.116; (compound concentration: 10 uM) inactive: 2.58.

Consider `NC(CC1c2ccccc2Sc2ccccc21)(C(=O)O)C12C3C4C1C1C2C3C41C(=O)O` (configuration not stated), for which the TEAD-luciferase reporter activity is, setting by setting: (compound concentration: 200 nM) inactive: -0.92; (compound concentration: 2 uM) inactive: 3.66; (compound concentration: 10 uM) inactive: 1.14.

For `NC(=O)C1(N2CCCCC2)CCN(CCCN2c3ccccc3CCc3ccccc32)CC1`, the TEAD-luciferase reporter activity reads like this: (compound concentration: 200 nM) inactive: -0.76; (compound concentration: 2 uM) inactive: 0.401; (compound concentration: 10 uM) inactive: -1.3.

Turning to `CN1c2ccccc2CNc2cncnc21`, the TEAD-luciferase reporter activity by setting is: (compound concentration: 200 nM) inactive: -0.117; (compound concentration: 2 uM) inactive: -1.1; (compound concentration: 10 uM) inactive: -0.856.

Consider `CC1(C)CCCN(CCCOc2ccc(C3CCN(C(=O)c4ccc(CCC(=O)O)c5ccccc45)CC3)cc2)C1`, for which the TEAD-luciferase reporter activity (compound concentration: 200 nM) is inactive: -2.09, the TEAD-luciferase reporter activity (compound concentration: 2 uM) is inactive: -1.06 and the TEAD-luciferase reporter activity (compound concentration: 10 uM) was inactive: 0.0206.

Regarding `CC(=O)OCC(=O)Nc1cc(C#N)cc(NC(=O)COC(C)=O)c1Cl` [Acreozast], the TEAD-luciferase reporter activity was inactive: 2.24 (compound concentration: 200 nM), inactive: -0.802 (compound concentration: 2 uM) and inactive: -1.29 (compound concentration: 10 uM).

With `NS(=O)(=O)c1cc2c(cc1Cl)NC(C(Cl)Cl)NS2(=O)=O` (configuration not stated) [Trichlormethiazide], the TEAD-luciferase reporter activity (compound concentration: 2 uM) is inactive: -1.51.

Take `NS(=O)(=O)c1cc2c(cc1Cl)NC(C(Cl)Cl)NS2(=O)=O` (configuration not stated) [Trichloromethiazide]: the TEAD-luciferase reporter activity by setting is: (compound concentration: 200 nM) inactive: -2.05; (compound concentration: 10 uM) inactive: 0.115.

`CCCC(=O)Nc1ncnc2c1ncn2[C@@H]1O[C@@H]2COP(=O)(O)O[C@H]2[C@H]1OC(=O)CCC` [bucladesine]: the TEAD-luciferase reporter activity by setting is: (compound concentration: 200 nM) inactive: -2.23; (compound concentration: 2 uM) inactive: -0.864; (compound concentration: 10 uM) inactive: -1.85.

Take `CC1CCc2c(N3CCC(OC(=O)[C@H](C)N)CC3)c(F)cc3c(=O)c(C(=O)O)cn1c23` (some centres not stated): the TEAD-luciferase reporter activity (compound concentration: 200 nM) is inactive: -1.11, the TEAD-luciferase reporter activity (compound concentration: 2 uM) is inactive: -0.619 and the TEAD-luciferase reporter activity (compound concentration: 10 uM) was inactive: -0.337.

For `O=C1/C(=C/c2ccccc2)C(NC2CCCCC2)c2ccccc21` (configuration not stated), the TEAD-luciferase reporter activity by setting is: (compound concentration: 200 nM) inactive: 0.0312; (compound concentration: 2 uM) inactive: -0.429; (compound concentration: 10 uM) inactive: -0.75.

In the case of `COc1nccnc1N(C(C)=O)S(=O)(=O)c1ccc(N)cc1`, the TEAD-luciferase reporter activity by setting is: (compound concentration: 200 nM) inactive: 1.39; (compound concentration: 2 uM) inactive: -0.603; (compound concentration: 10 uM) inactive: -0.126.

In the case of `CCCCCCCCC(=O)N[C@H](CN1CCCC1)[C@H](O)c1ccc2c(c1)OCCO2`, the TEAD-luciferase reporter activity runs as follows: (compound concentration: 200 nM) inactive: -2.12; (compound concentration: 2 uM) inactive: -1.66; (compound concentration: 10 uM) inactive: 0.683.

In the case of `C[C@@H](O)[C@H]1C(=O)N2C(C(=O)O)=C(S[C@@H]3CN[C@H](CNS(N)(=O)=O)C3)[C@H](C)[C@H]12` [Doripenem Hydrate], the TEAD-luciferase reporter activity runs as follows: (compound concentration: 200 nM) inactive: 0.142; (compound concentration: 10 uM) inactive: 0.152.

Regarding `C[C@@H](O)[C@H]1C(=O)N2C(C(=O)O)=C(S[C@@H]3CN[C@H](CNS(N)(=O)=O)C3)[C@H](C)[C@H]12` [Doripenem], under “compound concentration: 2 uM”, the TEAD-luciferase reporter activity was inactive: 2.33.
